No constants are given. Whether binding was seen depends on the method and setting.
Molecular target: GST-Nup100(1–640)p (S. cerevisiae) (UniProt Q02629)
Experiment: pull-down; 200 pmol GST or GST-nucleoporin fusion and 40 pmol Ssa1p or Ssa2p incubated with Glutathione Sepharose in Buffer 88 (20 mM HEPES-KOH pH 6.8, 2 mM Mg(OAc)2, 150 mM KOAc) with 0.10% wt/vol Tween-20, 4°C, 2 hr; eluted with 10 mM reduced glutathione; Ssa proteins detected by Western blotting with anti-Ssa protein antibodies; both purified

Amino acid sequences for entries named in this document (tags omitted). Residues count along the entry.
UniProt Q02629, residues 1-640: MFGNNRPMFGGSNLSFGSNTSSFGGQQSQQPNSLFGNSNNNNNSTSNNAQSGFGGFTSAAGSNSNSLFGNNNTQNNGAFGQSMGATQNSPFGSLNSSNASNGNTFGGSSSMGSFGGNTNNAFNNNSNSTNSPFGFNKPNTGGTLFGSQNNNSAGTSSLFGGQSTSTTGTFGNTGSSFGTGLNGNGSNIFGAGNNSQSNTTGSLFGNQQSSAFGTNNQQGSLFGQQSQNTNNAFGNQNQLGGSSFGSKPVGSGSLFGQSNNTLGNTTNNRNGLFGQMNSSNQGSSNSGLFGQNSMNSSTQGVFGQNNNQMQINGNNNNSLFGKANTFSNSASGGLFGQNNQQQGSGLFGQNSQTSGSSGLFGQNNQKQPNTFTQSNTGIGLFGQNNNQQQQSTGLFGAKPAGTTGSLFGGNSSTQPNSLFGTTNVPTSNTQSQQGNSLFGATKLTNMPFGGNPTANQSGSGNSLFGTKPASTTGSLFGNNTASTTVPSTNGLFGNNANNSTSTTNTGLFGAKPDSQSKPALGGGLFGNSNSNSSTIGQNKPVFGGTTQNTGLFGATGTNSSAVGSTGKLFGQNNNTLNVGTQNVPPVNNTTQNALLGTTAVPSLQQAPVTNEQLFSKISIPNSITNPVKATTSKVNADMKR
UniProt P10591: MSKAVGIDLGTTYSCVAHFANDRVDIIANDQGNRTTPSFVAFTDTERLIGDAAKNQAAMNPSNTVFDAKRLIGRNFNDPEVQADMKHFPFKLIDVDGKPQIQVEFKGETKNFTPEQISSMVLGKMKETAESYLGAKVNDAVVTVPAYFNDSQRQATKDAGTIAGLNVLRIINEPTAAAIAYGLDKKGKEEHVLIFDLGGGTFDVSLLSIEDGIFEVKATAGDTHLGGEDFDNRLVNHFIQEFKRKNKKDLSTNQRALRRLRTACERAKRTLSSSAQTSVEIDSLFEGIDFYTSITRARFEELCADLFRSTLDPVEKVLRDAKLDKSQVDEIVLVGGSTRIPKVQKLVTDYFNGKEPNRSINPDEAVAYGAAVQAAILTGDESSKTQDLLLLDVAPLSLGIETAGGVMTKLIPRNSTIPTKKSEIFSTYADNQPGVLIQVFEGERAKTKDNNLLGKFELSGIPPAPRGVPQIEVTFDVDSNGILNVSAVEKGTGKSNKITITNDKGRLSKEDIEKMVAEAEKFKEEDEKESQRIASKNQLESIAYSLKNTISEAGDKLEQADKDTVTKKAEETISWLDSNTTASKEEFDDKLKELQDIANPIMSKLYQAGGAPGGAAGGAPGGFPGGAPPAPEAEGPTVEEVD

## Ssa1p (from UniProt P10591 1-642)
  binding: no binding (tested: 200 pmol GST fusion, 40 pmol Ssa protein)
